Source: PubChem BioAssay AID540276 (National Center for Advancing Translational Sciences (NCATS), 2011)
The whole screen tested about 300,000 compounds, of which about 5,400 (1.8%) were called active. Inconclusive means that the source gave no clear call. Such entries were picked first, then a sample of the others. The call rests on the fitted dose curve; tested in HEK293 cells. Potencies of inconclusive entries are doubtful fits and often do not repeat.

assay: qHTS for inhibitors of binding or entry into cells for Marburg Virus; conditions: Marburg virus pseudotyped entry inhibition, cell reporter; series mostly up to 37.8 µM
Potency means the concentration at half of the fitted maximal effect.

Structure (SMILES) | Potency
COc1cccc(NC(=O)CC2C(=O)NCCN2C(=S)Nc2ccc(F)cc2)c1 (centres undefined) | inconclusive: 2.82 µM [activator, single point]
CCSC1(SCC)N=C(N)C2(C#N)C(c3ccc(F)cc3)C12C#N (centres undefined) | inconclusive: 17.8 µM [inhibitor, single point]
O=C(c1cc([N+](=O)[O-])cc([N+](=O)[O-])c1)N(c1ccccn1)c1ccccn1 | inconclusive: 8.91 µM [activator, partial curve, poor fit]
CSc1ccc(C(=O)C2CCCN(Cc3cnc(SC)nc3)C2)cc1 (centres undefined) | inconclusive: 11.2 µM [inhibitor, partial curve, poor fit]
CCCOc1ccc(-c2cnc(N)s2)cc1 | inconclusive: 2.06 µM [activator, partial curve]
Cc1onc(-c2ccc(Cl)cc2Cl)c1-c1csc(N/N=C/c2ccccc2Cl)n1 | inconclusive: 11.2 µM [inhibitor, partial curve, poor fit]
Cc1c(CC(=O)NCc2ccccc2Cl)c(=O)oc2cc(O)ccc12 | inconclusive: 3.16 µM [activator, partial curve, poor fit]
C[C@]12CCC3C(CC[C@@H]4CC(=O)CC[C@]34C)C1CC[C@@H]2O (some centres undefined) | inconclusive: 25.1 µM [inhibitor, single point]
COc1cc2c3nnc(-c4ccccc4)c-3cn(Cc3ccc(F)cc3)c2cc1OC | inconclusive: 17.8 µM [inhibitor, single point]
Cc1cccn2c(Nc3ccccc3)c(-c3ccccn3)nc12 | inconclusive: 8.91 µM [inhibitor, partial curve, poor fit]
Cc1ccc(-c2csc(/C(C#N)=C(\O)CN3CCN(C(=O)c4ccco4)CC3)n2)cc1 | inactive
CCOC(=O)C1=C(N)n2c(s/c(=C\c3ccco3)c2=O)=C(C(=O)OC(C)C)C1c1ccco1 (centres undefined) | inconclusive: 0.447 µM [activator, partial curve, poor fit]
O=C(CSc1nnc(-c2ccc(Cl)cc2)n1Cc1ccco1)Nc1ccc2c(c1)OCCO2 | inconclusive: 29.1 µM [inhibitor, single point]
O=C(CSc1ccc(Br)cc1)Nc1ccccc1N1CCOCC1 | inconclusive: 10 µM [inhibitor, partial curve, poor fit]
Cc1cccc(-c2cc3nc4c(c(N5CCOCC5)n3n2)CCCC4)c1 | inconclusive: 29.1 µM [inhibitor, single point]
C/C(N)=C(/C#N)C(=O)CSc1nc2ccccc2c(=O)n1CCCOC(C)C | inconclusive: 3.66 µM [inhibitor, partial curve, poor fit]
C=CCNCc1cc(=O)n2c(-c3ccccc3)csc2n1 | inactive
COc1ccc(O[C@H]2C=C[C@@H](c3ccccc3)O[C@H]2CON=C2[C@H]3CCn4c(=O)n(-c5ccccc5)c(=O)n4[C@@H]3[C@H](O)[C@@H]3O[C@H]23)cc1 | inactive
CC1CC(C)CN(C(=O)C(NS(=O)(=O)c2ccc(Br)s2)c2ccccc2)C1 (centres undefined) | inconclusive: 29.1 µM [inhibitor, single point]
O=C(c1ccccc1)n1c(=S)nc2ccccn21 | inconclusive: 0.112 µM [activator, full curve, poor fit]

2 of these compounds in a different format:
Structure (SMILES)	Potency
COc1cc2c3nnc(-c4ccccc4)c-3cn(Cc3ccc(F)cc3)c2cc1OC	inconclusive: 17.8 µM [inhibitor, single point]
Cc1cccn2c(Nc3ccccc3)c(-c3ccccn3)nc12	inconclusive: 8.91 µM [inhibitor, partial curve, poor fit]

Continued.

Structure (SMILES) | Potency
O=C(C/C(=N\O)c1ccccc1O)C(F)F | inactive
O=C(COc1ccc(F)cc1)Nc1ccc(S(=O)(=O)Nc2ncccn2)cc1 | inconclusive: 35.5 µM [activator, single point]
O=C(Nc1ccncc1)c1ccc(S(=O)(=O)Nc2ccccc2)cc1 | inconclusive: 7.08 µM [inhibitor, partial curve, poor fit]
S=C(Nc1cccc(Cl)c1Cl)N1CCC2(CC1)OCCO2 | inconclusive: 1 µM [inhibitor, full curve, poor fit]
CCOc1ccc(C(=O)OCC(=O)Nc2cc(C)on2)cc1OCC | inactive
CCOC(=O)C1=C(CC)Nc2ccccc2N=C1NC(=O)c1oc2ccccc2c1C | inconclusive: 7.94 µM [inhibitor, partial curve, poor fit]
CC(C)NC(=S)N/N=C/c1ccccc1[N+](=O)[O-] | inactive
CCn1c(CSCc2ccc(C)cc2)nnc1SCC(=O)N1CCN(c2ccccc2)CC1 | inconclusive: 20 µM [inhibitor, single point]
COc1cc(CNc2ccc3[nH]c(=O)[nH]c3c2)cc(Cl)c1OCc1ccc(F)cc1 | inconclusive: 4.47 µM [inhibitor, full curve]
CCN1CCCC1CNC(=O)Cn1cnc2sc(C)c(S(=O)(=O)N3CCC(C)CC3)c2c1=O (centres undefined) | inconclusive: 10.3 µM [inhibitor, partial curve]
O=C(COC(=O)c1c2c(nc3ccccc13)CCCC2)c1ccc(Br)s1 | inconclusive: 15.8 µM [inhibitor, single point]
COc1ccc(-c2cc(CNS(=O)(=O)c3ccc(NC(C)=O)cc3)on2)cc1 | inconclusive: 0.316 µM [inhibitor, partial curve, poor fit]
COc1ccc2c(c1)nc(SCC(=O)C(C)(C)C)n2C | inactive
Cc1ccc(NCC(=O)c2ccc([N+](=O)[O-])cc2)cc1 | inconclusive: 0.891 µM [activator, full curve, poor fit]
CC1CCCC(C)N1C(=O)c1cc(F)c(F)cc1Cl (centres undefined) | inconclusive: 35.5 µM [inhibitor, single point]
O=C(NCCCc1nc2ccccc2n1Cc1ccccc1F)c1ccco1 | inconclusive: 0.891 µM [inhibitor, full curve, poor fit]
COc1ccc(-c2cc(C(=O)Nc3c(C)n(C)n(-c4ccccc4)c3=O)no2)cc1 | inconclusive: 3.16 µM [activator, single point]
CCn1cc([N+](=O)[O-])c(C(=O)N2N=C(c3ccc(O)c(OC)c3)CC2c2ccccc2O)n1 (centres undefined) | inconclusive: 29.1 µM [inhibitor, single point]
Cc1ccc(S(=O)(=O)C2(C(=O)N3CCN(C4CCCCC4)CC3)CC2)cc1 | inactive
